Data as given in article PMC6262774.
These are yes or no findings as the source states them, for the method shown. Binding seen in cells or lysates may run through a third protein. Some entries that bind do so weakly or less than the wild type.

The chains behind the UniProt entries cited, without tags or fusion partners.
UniProt P12814: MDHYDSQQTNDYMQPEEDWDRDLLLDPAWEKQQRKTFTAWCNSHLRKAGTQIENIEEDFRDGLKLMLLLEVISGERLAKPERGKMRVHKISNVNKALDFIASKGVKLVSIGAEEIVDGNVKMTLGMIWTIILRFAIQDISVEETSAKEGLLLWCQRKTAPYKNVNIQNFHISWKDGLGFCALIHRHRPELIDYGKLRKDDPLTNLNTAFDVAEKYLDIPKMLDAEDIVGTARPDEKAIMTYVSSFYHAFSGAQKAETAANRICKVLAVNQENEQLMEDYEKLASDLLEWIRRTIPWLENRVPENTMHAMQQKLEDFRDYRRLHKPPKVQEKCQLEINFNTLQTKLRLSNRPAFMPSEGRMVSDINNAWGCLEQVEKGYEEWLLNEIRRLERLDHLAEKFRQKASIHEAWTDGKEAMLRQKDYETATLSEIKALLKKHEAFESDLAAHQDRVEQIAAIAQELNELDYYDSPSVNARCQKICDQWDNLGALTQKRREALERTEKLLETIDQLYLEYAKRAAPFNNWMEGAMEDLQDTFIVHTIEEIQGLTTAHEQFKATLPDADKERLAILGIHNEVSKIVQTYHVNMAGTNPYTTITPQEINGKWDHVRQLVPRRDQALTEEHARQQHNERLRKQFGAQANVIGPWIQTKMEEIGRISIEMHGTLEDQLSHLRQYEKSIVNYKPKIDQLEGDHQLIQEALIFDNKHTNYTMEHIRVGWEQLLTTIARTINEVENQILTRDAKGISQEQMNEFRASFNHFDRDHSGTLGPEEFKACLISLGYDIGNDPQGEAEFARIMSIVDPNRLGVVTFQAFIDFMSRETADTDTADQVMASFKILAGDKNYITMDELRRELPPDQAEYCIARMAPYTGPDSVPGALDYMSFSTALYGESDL
UniProt Q9NR12: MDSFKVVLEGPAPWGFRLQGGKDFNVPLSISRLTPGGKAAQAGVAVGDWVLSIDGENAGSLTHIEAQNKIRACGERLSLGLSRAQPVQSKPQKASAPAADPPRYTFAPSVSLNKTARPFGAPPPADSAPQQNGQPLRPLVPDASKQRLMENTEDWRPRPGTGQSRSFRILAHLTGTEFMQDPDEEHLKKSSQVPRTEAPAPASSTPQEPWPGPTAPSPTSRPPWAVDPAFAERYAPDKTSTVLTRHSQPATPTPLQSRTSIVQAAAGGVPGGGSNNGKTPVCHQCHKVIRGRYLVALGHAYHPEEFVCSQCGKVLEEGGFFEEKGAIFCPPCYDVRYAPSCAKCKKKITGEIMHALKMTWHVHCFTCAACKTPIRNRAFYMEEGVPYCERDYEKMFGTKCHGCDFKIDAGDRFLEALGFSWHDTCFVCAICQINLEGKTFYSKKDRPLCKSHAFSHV

Columns and labels:
[1] = molecular target: GFP-tagged human YAP (pEGFP C3-YAP2) (human) (UniProt P46937); experiment: co-IP; GFP-Trap-M beads, lysate of transfected HEK293T cells; lysis buffer 10 mM Tris-HCl pH 7.5, 150 mM NaCl, 0.5% NP-40, 0.5 mM EDTA; 1 h, three washes; blots with anti-PDLIM5 and anti-PDLIM7
[2] = molecular target: GFP-tagged α-actinin 1 (pEGFP-N1 α-actinin 1) (UniProt P12814); experiment: co-IP; IP of GFP-tagged α-actinin 1 from human Caco2 cells, blots for PDLIM5 and PDLIM7
[3] = molecular target: endogenous YAP of Caco-2 cells (human (endogenous in Caco-2)) (UniProt P46937); experiment: co-IP; endogenous IP: mouse anti-YAP antibody (63.7), 3 μg, on Dynabeads; Caco-2 lysates processed as for the overexpression co-IPs

| binding [1] | binding [2] | binding [3] | Substance |
| --- | --- | --- | --- |
| binds |  |  | PDLIM7 (Enigma) in HEK293T lysate (from UniProt Q9NR12 1-457) |
|  | binds | binds | endogenous PDLIM7 (Enigma) of Caco-2 cells (from UniProt Q9NR12 1-457) |
